The results are deposited in PubChem (AID1159506; NCATS, 2015).

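Luminescence from an EWS-FLI1 target-promoter (NR0B1) reporter, set against a CMV-promoter reporter, two days after silencing single genes in TC32 Ewing sarcoma cells. Each siRNA was applied at 20 nM. A z-score of the log NR0B1-over-CMV signal, less the median of siRNAs with the same seed; more negative means a stronger specific loss of the NR0B1 reporter.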

This is part of the screen; most of the strongest results are not listed here. Sequences are the guide (antisense) strand, without overhang.

Sequence | target gene | seed-corrected z-score
UUGAAAUAUAGUUAGAAGC | MBLAC2 | 0.05273
UGUGAAUGAAAAGCCGUGG | PRR21 | -0.004859
UUUCAAACAAAAACGUGUC | OR10A6 | 0.03362
AACUAGAUUCUUAUAGUUC | ZNF559 | 0.1302
UUCGAGAUUCAGUAGGUGG | BCL6B | -0.06719
CUGUUUCCCAUUGCGUCUU | FAHD2B | 0.02046
UAUCGAAAAGUAACCAACC | IQCH | 0.3235
UGUCAGAUCAAUGUCAAUC | PCP4L1 | 0.814
AUUGGGACAGAAGUGCUUC | RHOB | 0.4194
AUGGUGACGAUAUAGGUUC | FLNA | -0.8756
UUUCUCGUAACACCUUUGC | UACA | -0.043
UAAGUCACUACAACCACGG | MFSD2B | 0.3339
UUUCGUCAUGGGUUGUUUG | IL10RB | 0.5164
UUGUUCUUAAGGUUGCGCA | PRAF2 | -0.04554
UAACUUGGAAGGACGAGCC | SLC23A2 | 0.5131
UUAUAGGCAGUCAUAAGCC | SEL1L | 1.022
AUAUUGCUUAGUGUAGACA | PEX11G | -0.06591
UAAGCUUCCUGGAUAGACA | TSEN54 | -0.2229
UCUGGAACUGCACUACAGC | NDOR1 | 0.68
UUCUGAAACAUGGAGUCCC | CFAP77 | -0.00621
ACUGAUGACAGGCUGGACG | DOK3 | -0.1587
UAAGUCCCAUCCAACUUCC | FAM183A | 2.353
UCAAAUCCAAUGCUCAUGA | ATP5S | -0.2265
UUCCAUGUUGGUUUAGUCC | ARL6IP1 | -0.5815
UCCAAGAAUAUUGUGCCCG | PSG4 | -0.5658
UUUCGCUUAGUCUUAUAGC | NKX3-1 | 0.3038
UUAACAACCUUAAUCAGUU | LOC644135 | 0.3439
UGAGUUUGGAGGGAAACCG | PRKACG | 0.06035
UGGUGAUCCAAGCUAAUCC | MARVELD2 | -0.8997
UCGGGUACGAACCAUGAUC | ZNF609 | 0.171
UCUGGUACAAGCUGUUCCC | ENTHD2 | 0.693
UUCGGUUACAACGUAAACC | PLSCR4 | 0.1409
AAACAUACCGUAGCUCAGC | LFNG | -0.7529
UUAAUGUCCAGUUCAUUUG | ZNF786 | -0.9891
UAGAUAACCAAUUCAACUA | LOC729317 | -0.01097
AAGGUGUUCGAUGAGUUGG | ART5 | -0.5489
UCUUUUCCCUGUUUACUGC | HMGN1P21 | -0.3279
AUUGGUCACAUCAUAGACG | IFT27 | -0.8467
UUCGGUUUAUUUGCGUUGG | NCOA6 | 0.1849
UUGGUAAGUGGUUCUGACU | TMEM79 | -0.1428
AAAAGUGUCCCAGUGAGGU | CD70 | 2.006
AUAGGCAUCUGUGCAUUUC | LAIR2 | -1.402
UUAUGAAACAUGGAGUUGC | PRMT1 | 0.4751
UCCGGUGUGAUUUUGACUC | RAB8A | -0.5651
UUACUUGCGACCUUAAAUC | SLFN12 | -0.03647
UUCUCUUCUUAAUCUGUCU | LOC728175 | -0.8254
UCAUAGAUAUGGAUGUUUG | NMT1 | -0.3309
UCUGGGUUCAUCUCUACGG | BCAM | 2.185
UAAGGAACUCGAGGCUGCC | GGN | -0.4674
UUGCUUUCCGCACUGAUGC | SRGAP3 | -1.095
UAAGCAUCGAAGAGAUCGC | E2F3 | -0.4204
UGACCUGCUGAUGUGACUG | SYT3 | 0.2442
AUAAAGUUCAUGUUGAAGG | HS6ST2 | 0.4358
UGAUCUUCAAGUGAGAGGG | HYAL1 | -0.2346
AAAUCGUUUCCUUCCAGCC | FNDC1 | -0.9722
AGAUGUUAAACAUAGAAGC | ELOVL2 | 0.4083
AAUUUGACUGGAACGAAGG | ZNF14 | -0.6554

Once more, the final 6:

| Sequence | target gene | seed-corrected z-score |
|---|---|---|
| `UGACCUGCUGAUGUGACUG` | SYT3 | 0.2442 |
| `AUAAAGUUCAUGUUGAAGG` | HS6ST2 | 0.4358 |
| `UGAUCUUCAAGUGAGAGGG` | HYAL1 | -0.2346 |
| `AAAUCGUUUCCUUCCAGCC` | FNDC1 | -0.9722 |
| `AGAUGUUAAACAUAGAAGC` | ELOVL2 | 0.4083 |
| `AAUUUGACUGGAACGAAGG` | ZNF14 | -0.6554 |